Tested on: primary human epidermal keratinocytes
Assay type: cell-based

## CCC(C)[C@H](NC(=O)[C@H](CC1CCCCC1)NC(=O)c1ccno1)C(=O)N1CCC2(CCc3ccccc32)CC1 (some centres unmarked) [GB83]
  average ratio of the P-CTX-2-mediated calcium signal (ΔF/F0): 0.33±0.08
  decrease of the average ratio of the P-CTX-2-mediated calcium signal: approximately 70%
